In assay [1] the target is T1, 3xFLAG::LIN-42 (endogenously tagged, lin-42(xe321[3xflag::lin-42])) (C. elegans (endogenous in animals)), Q65ZG8.
T1 chain: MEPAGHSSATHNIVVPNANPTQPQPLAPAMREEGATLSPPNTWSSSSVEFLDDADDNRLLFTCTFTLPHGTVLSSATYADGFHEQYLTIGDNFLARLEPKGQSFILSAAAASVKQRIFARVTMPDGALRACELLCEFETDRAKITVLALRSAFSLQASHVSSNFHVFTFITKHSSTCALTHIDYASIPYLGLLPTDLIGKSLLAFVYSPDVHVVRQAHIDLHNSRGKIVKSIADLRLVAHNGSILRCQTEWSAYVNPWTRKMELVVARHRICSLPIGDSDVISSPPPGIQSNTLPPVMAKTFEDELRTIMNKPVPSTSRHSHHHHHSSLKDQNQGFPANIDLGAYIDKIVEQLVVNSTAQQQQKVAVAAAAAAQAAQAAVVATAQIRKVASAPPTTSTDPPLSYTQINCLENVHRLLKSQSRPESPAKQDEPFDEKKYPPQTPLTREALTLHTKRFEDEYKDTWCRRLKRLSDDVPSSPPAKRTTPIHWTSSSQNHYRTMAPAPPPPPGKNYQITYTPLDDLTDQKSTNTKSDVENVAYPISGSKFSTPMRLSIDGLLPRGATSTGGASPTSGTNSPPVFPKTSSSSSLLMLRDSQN
The assay is described as follows: affinity purification with mass spectrometry; anti-FLAG M2 magnetic beads, 2 h at 4 °C, cleared extracts of mixed-stage 3xflag::lin-42 animals in 50 mM Tris-HCl pH 7.5, 150 mM NaCl, 1% Triton X-100, 1 mM EDTA; control strain sart-3::gfp::3xflag; label-free quantification. As to conditions: remark: other sources report otherwise.

The target of assay [2] is T2, 3xFLAG::LIN-42 (endogenously tagged, lin-42(xe321[3xflag::lin-42])) (C. elegans (endogenous in animals)) (UniProt Q65ZG8).
T2 sequence: T1 chain
Described as above.

Results are given in words; binding and its absence hold for the method and conditions named. Binding seen in cells or lysates may run through a third protein. A yes stands for co-enrichment or nearness to the bait. Other partners may have been found. For some assays here: No binding means not detected with the bait. Tags and fused reporters may be left off the sequences shown.

B1: NHR-85, Q9XUK7 1-514 (protein)
chain: MDLSTSGSLPCHLPLSLLTNLQTPPIDTSFSSPPATSSSSLLSPSPSSAFRPVVPKSLMNPQPAMDTFYMSAIQSLVVSTTNDDQYSEHGALEGSKSLAKDENASTSAGTILCQVCSDKASGFHYGVFACEGCKGFFRRSIQQKITYRACTRAEDCLILRNNRNRCQCCRLKKCLAVGMSRDAVRFGRVPKREKARMFEEMQKTNVQSQRDQIAIQYENLTEVMHKINQAFGTLQATLEKCTGPIYTDRCPITSNFIVIPLKAAIDFANSIPAFLSITQTQRVHLLQNSVFDVMLLASASASTSQHFPPGGLTYDQSSANPIIPQAIQSISARIRQLPPQTVPILTAIAVCQADLLPESQQPMLLAERLWCVLGKLGGIQSLATAPSLLADVRTLRQWHSDRLRQMSQISQHFSQNLLIAPVAAAAPVLLPPAFLSPPASATSTSSSSVKSEFIERHPSIASLLERPRRISSSGAQEPLNLSLPHVRHQVKRDVDSDEQLEEMKVSPVPTTLSE
With B1, the binding entry in assay [1] is “no binding”.

B2: KIN-20 (endogenous, untagged) (enzyme, UniProt Q20471-1 1-479)
chain: MATMSNDAAAAATWHNNTSTPMDTTEPATNSHNPGETAVIGGPEALLLPSGSGPEEMNRHPLLMAQAHGEHHQPRLLHNFPVIPPPIQQHQQPPLLQQAQPSQIPHPTQPQIDPTMFTQQSGFNWPPIDPNTIAALAQAQLASSHAQFVSLALTLDPTLLSHFLATQQIPPVPQPLVHKKAEMELRVGNRFRLGRKIGSGSFGDIYLGQNIQTNEEVAVKLECVKSKHPQLHIESRLYRIMLGGIGIPEIRWCGQEGDYNVMVMELLGPSLEDLFNFCQRKFSLKTVLLLADQMLSRVEFIHCRDYIHRDIKPDNFLMGLGKRGNLVYIIDFGLAKRYRDSKHQHIAYRENKNLTGTARYASINTHRGIEQSRRDDIESLGYVFMYFNRGTLPWQGLKAVTKRQKYELISEKKISTRVDDLCAGYPEAFAQYLNYCRSLGFEEQPDYGYLRNLFRTLFHRQQFCYDYVFDWNTYKFRRN
As to B2, the binding entry in assay [2] is recorded as “binds”.

These data come from publication PMC12624140, “A conserved chronobiological complex times C. elegans development” (The EMBO Journal, 2025).
